Data as given in publication doi:10.1101/2021.04.27.441709.
No constants are given. Whether binding was seen depends on the method and setting. In cells and extracts the contact can be indirect. Some results given as binding are weak or reduced against the parent protein; the word gives no strength. For some assays here: Tags and fused reporters may be left off the sequences shown.

The chains behind the UniProt entries cited, without tags or fusion partners.
UniProt P07355: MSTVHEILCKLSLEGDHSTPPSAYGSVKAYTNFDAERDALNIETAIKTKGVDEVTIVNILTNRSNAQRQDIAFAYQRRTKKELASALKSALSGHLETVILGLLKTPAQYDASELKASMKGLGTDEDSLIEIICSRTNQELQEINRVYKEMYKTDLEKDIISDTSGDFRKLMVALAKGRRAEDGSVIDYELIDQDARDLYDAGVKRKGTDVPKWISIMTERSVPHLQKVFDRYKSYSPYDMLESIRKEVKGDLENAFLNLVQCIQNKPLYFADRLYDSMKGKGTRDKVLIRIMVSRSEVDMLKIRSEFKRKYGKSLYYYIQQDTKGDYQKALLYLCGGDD

B1: grancalcin (protein, UniProt P28676 1-217)
chain: MAYPGYGGGFGNFSIQVPGMQMGQPVPETGPAILLDGYSGPAYSDTYSSAGDSVYTYFSAVAGQDGEVDAEELQRCLTQSGINGTYSPFSLETCRIMIAMLDRDHTGKMGFNAFKELWAALNAWKENFMTVDQDGSGTVEHHELRQAIGLMGYRLSPQTLTTIVKRYSKNGRIFFDDYVACCVKLRALTDFFRKRDHLQQGSANFIYDDFLQGTMAI
B2: CHMP4B (in the annexin immunoprecipitates of Fig. 8d) (protein, UniProt Q9H444 1-224)
chain: MSVFGKLFGAGGGKAGKGGPTPQEAIQRLRDTEEMLSKKQEFLEKKIEQELTAAKKHGTKNKRAALQALKRKKRYEKQLAQIDGTLSTIEFQREALENANTNTEVLKNMGYAAKAMKAAHDNMDIDKVDELMQDIADQQELAEEISTAISKPVGFGEEFDEDELMAELEELEQEELDKNLLEISGPETVPLPNVPSIALPSKPAKKKEEEDDDMKELENWAGSM
B3: sorcin (protein, UniProt P30626 1-198)
chain: MAYPGHPGAGGGYYPGGYGGAPGGPAFPGQTQDPLYGYFAAVAGQDGQIDADELQRCLTQSGIAGGYKPFNLETCRLMVSMLDRDMSGTMGFNEFKELWAVLNGWRQHFISFDTDRSGTVDPQELQKALTTMGFRLSPQAVNSIAKRYSTNGKITFDDYIACCVKLRALTDSFRRRDTAQQGVVNFPYDDFIQCVMSV

Legend:
ANXA2-Flag (human) = ANXA2-Flag (human) (UniProt P07355); assay: co-IP
ANXA7-Flag (human) = target: T1, ANXA7-Flag (human) (UniProt P20073); assay: co-IP
T1 sequence: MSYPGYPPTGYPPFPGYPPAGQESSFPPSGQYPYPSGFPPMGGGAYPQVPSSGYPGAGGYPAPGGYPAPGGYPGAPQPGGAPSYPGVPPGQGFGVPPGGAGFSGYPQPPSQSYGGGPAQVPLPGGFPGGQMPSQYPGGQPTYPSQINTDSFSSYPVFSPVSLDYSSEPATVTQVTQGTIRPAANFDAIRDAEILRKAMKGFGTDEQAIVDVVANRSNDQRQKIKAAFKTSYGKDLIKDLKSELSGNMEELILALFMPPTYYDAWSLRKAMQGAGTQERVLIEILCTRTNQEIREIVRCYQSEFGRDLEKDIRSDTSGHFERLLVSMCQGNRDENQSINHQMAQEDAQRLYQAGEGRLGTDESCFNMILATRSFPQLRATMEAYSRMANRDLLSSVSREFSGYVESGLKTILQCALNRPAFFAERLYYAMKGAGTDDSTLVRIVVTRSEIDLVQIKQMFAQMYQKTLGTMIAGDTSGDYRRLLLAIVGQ

Binder | binding (ANXA2-Flag (human)) | binding (ANXA7-Flag (human))
B1 | binds | binds
B2 | binds | binds
B3 | – | binds
